This is an account of results in PMC12040169 (PLOS Biology, 2025).

Some of the results follow.

This experiment has as its system T1, CTL2-GFP (C. trachomatis L2/434/Bu, GFP-expressing).
T1 construct: L2/434/Bu, GFP-expressing
Set-up: species or system HeLa; Intracellular C. trachomatis growth in HeLa cells, bulk GFP fluorescence relative to DMSO. The note with it: bulk GFP, single well; 28.5 h, 10 µM; inhibitor.
With `O=C(COc1ccc2ccccc2c1)N1CCN(S(=O)(=O)c2ccccc2[N+](=O)[O-])CC1` [CBK264271], the “% of control remaining” value came out at 134.143%.

As to `COc1ccccc1CCCN1CCC2(C1)NCCc1c2[nH]c2ccccc12` (stereo not shown) [CBK040257], the “% of control remaining” value came out at 204.817%.

`COc1ccc2[nH]c3c(c2c1)CCN[C@]31CCN(CCOc2ccc(F)cc2)C1` [CBK089876T]: the “% of control remaining” value amounted to 134.787%.

`CCCOc1ccc(C(=O)N2CCN(c3ccccc3)CC2)cc1` [CBK304327]: the “% of control remaining” value came to 78.5691%.

For the molecule `O=C(Cn1ccnc1)Nc1ccccc1Oc1ccc(F)cc1` [CBK281455], the “% of control remaining” value is recorded as 110.383%.

On to `CCCCn1c(SCC(O)COCc2ccc(OC)c(OC)c2)n[nH]c1=O` (stereo not shown) [CBK296653], for which the “% of control remaining” value was 135.023%.

On to `O=C(Cc1csc(-c2ccc(Cl)cc2)n1)NCCN1CCCC1` [CBK107306], for which the “% of control remaining” value worked out at 100%.

With `O=S(=O)(Nc1nnc(C(F)(F)F)s1)c1ccc(Br)cc1` [CBK200047], the “% of control remaining” value is recorded as 123.076%.

On to `CCC1CCC2(CC1)NC(=O)N(CC(=O)Nc1nccs1)C2=O` (stereo not shown) [CBK305936], for which the “% of control remaining” value stood at 100.954%.

Regarding `O=C(O)C1(Oc2ccc3ncccc3c2)CCN(Cc2ccoc2)CC1` [CBK307598], the “% of control remaining” value was 119.246%.

`OCCCNC(=S)NCCc1ccccc1` [CBK264869]: the “% of control remaining” value amounted to 120.796%.

Regarding `CN(C)C(=O)CN1C(=O)N2CCN=C2c2ccccc21` [CBK283961], the “% of control remaining” value is given as 115.906%.

For the molecule `CCOC(=O)c1c(/N=C/c2cc(I)cc(I)c2O)sc2c1CCN(Cc1ccccc1)C2` [CBK262246], the “% of control remaining” value was 83.2427%.

As to `CCOC(=O)NC(Nc1nc2ccccc2s1)(C(F)(F)F)C(F)(F)F` [CBK008913], the “% of control remaining” value is given as 87.2577%.

Turning to `Cc1c(C(=O)O)sc(S(=O)(=O)N2CCN(C(=O)Cc3ccccc3Cl)CC2)c1C(=O)O` [CBK297137], the “% of control remaining” value came to 129.347%.

Take `COc1ccc([C@@]23CCC(N)C[C@@H]2N(C)CC3)cc1OC` (stereo partly shown) [CBK003576]: the “% of control remaining” value is 112.807%.

As for `CCCNC(CC(=O)Nc1ccccc1)C(=O)O` (stereo not shown) [CBK266819], the “% of control remaining” value was determined as 134.681%.

Consider `Cc1cc(C)cc(NC(=O)CC2Sc3ccccc3NC2=O)c1` (stereo not shown) [CBK266384], for which the “% of control remaining” value is recorded as 196.596%.

As for `O=C(O)COc1cccc2ccccc12` [CBK218704], the “% of control remaining” value came out at 129.1%.

Take `CCC1CCc2c(sc(NC(=O)C3C4CCC(C4=C(C)C)C3C(=O)O)c2C(=O)OC)C1` (stereo not shown) [CBK265424]: the “% of control remaining” value was 111.746%.

As to `O=C(O)COc1ccc(-c2nnn(CC(=O)O)n2)cc1` [CBK267124], the “% of control remaining” value was found to be 181.06%.

For `c1ccc2c(c1)OCC(COc1ccnc(N3CCCN(CC4CCCCC4)CC3)n1)O2` (stereo not shown) [CBK083982], the “% of control remaining” value was found to be 115.29%.

In the case of `Nc1ncc(-c2cccc(C(=O)O)c2)nc1N1CCOCC1` [CBK063415], the “% of control remaining” value came out at 160.634%.

`CCCC/C=C/c1cncc(NCc2cccc(Cl)c2)n1` [CBK065293]: the “% of control remaining” value came out at 146.961%.

With `CCn1c2cc(C)sc2c2cnn(CC(=O)OC)c(=O)c21` [CBK284186], the “% of control remaining” value is on record as 115.458%.

As for `O=C(O)Cc1ccc(-n2c(S)nnc2-c2ccncc2)cc1` [CBK268860], the “% of control remaining” value amounted to 172.785%.

As for `Cc1cc(C)n(-c2cccc(CN3CCC(CO)C3)c2)n1` (stereo not shown) [CBK282928], the “% of control remaining” value is 108.315%.

Consider `O=C1CC(Nc2ccc(N3CCOCC3)cc2)C(=O)N1CCc1ccccc1` (stereo not shown) [CBK269339], for which the “% of control remaining” value was found to be 66.0257%.

`Oc1cccc(/C=N/c2ccc(Cc3ccc(/N=C/c4cccc(O)c4)cc3)cc2)c1` [CBK261230]: the “% of control remaining” value is 103.983%.

`O=C(Nc1cccc2ccccc12)O[C@@H]1CO[C@H]2[C@@H]1OC[C@@H]2NC(=O)c1cccs1` [CBK289468]: the “% of control remaining” value came to 96.8318%.

Consider `Cc1cc2nc(NCC3CCCO3)c3ccccc3n2n1` (stereo not shown) [CBK305871], for which the “% of control remaining” value turned out to be 162.704%.

In the case of `CC(=O)NC(c1ccccn1)C1CCN(C(=O)C2CCCCC2)CC1` (stereo not shown) [CBK285049], the “% of control remaining” value is on record as 131.607%.

Regarding `Cc1ccccc1CCNC(=O)c1cccn(CC(=O)N(C)C2CCCCC2)c1=O` [CBK286028], the “% of control remaining” value was found to be 87.8915%.

For `CC(C)(C)C(=O)N1CC[C@H]2NC(=O)N(c3ccc(F)cc3)C(=O)[C@H]21` [CBK289328], the “% of control remaining” value worked out at 124.177%.

Consider `CCC(C)(C)N1CC(=O)N=C1NCCc1ccc(S(N)(=O)=O)cc1` [CBK007750], for which the “% of control remaining” value is on record as 149.062%.

For `COc1ccc(-c2cc(C(=O)OCc3ccccn3)c3ccccc3n2)cc1` [CBK296114], the “% of control remaining” value is 121.33%.

Take `O=S(=O)(c1cccc(C(F)(F)F)c1)n1ccc2c(CN3CCCC3)cccc21` [CBK116168T]: the “% of control remaining” value amounted to 89.4076%.

In the case of `CN(Cc1ccccc1)c1nc2ccccn2c(=O)c1/C=C1/SC(=S)N(CCc2ccccc2)C1=O` [CBK263839], the “% of control remaining” value is reported as 136.765%.

In the case of `CN(C)c1ncc(-c2ccc(F)cc2)c(C2CCCN2C(=O)c2nccc3ccccc23)n1` (stereo not shown) [CBK286086], the “% of control remaining” value stood at 108.814%.

Regarding `CS(=O)(=O)c1ccc(-c2ccc(COC3CCN(C(=O)CCCc4ccc(F)cc4)CC3)cn2)cc1` [CBK162229T], the “% of control remaining” value is recorded as 93.8837%.

Take `Cc1ccc(CN2CCCC3(C/C=C/COc4ccccc4C(=O)NCCNC3=O)C2)cn1` (stereo not shown) [CBK292022]: the “% of control remaining” value is 128.984%.

For `Cc1ccc(Cc2cnc(NC(=O)C3CCCO3)s2)cc1Cl` (stereo not shown) [CBK305013], the “% of control remaining” value turned out to be 135.824%.

Turning to `COc1ccc(-c2cc(C(=O)Nc3ccc(O)cc3)cnc2-c2ccc(F)cc2)cc1` [CBK038026], the “% of control remaining” value came out at 143.778%.

For `c1ccc(CNc2nc(-c3ccco3)cn3ccnc23)nc1` [CBK037482], the “% of control remaining” value is on record as 95.7495%.

As for `COc1ccc(C(NC(=O)c2cc(C)oc2CN2CCCC2)c2ccccc2)cc1` (stereo not shown) [CBK285573], the “% of control remaining” value is on record as 81.7067%.

Consider `C=C(C)Cn1c(SC(C)C)nnc1-c1ccccc1OC` [CBK200072], for which the “% of control remaining” value is 128.756%.

As to `CCCS(=O)(=O)NC1CC(C)(C)Cc2c1cnn2-c1ccc(F)cc1` (stereo not shown) [CBK306770], the “% of control remaining” value was determined as 97.3908%.

As to `COc1cccc(CNc2nccnc2-c2ccoc2)c1OC` [CBK036782], the “% of control remaining” value stood at 236.523%.

With `O=C(CC1CC1)Nc1snnc1-c1ccc(Cl)cc1` [CBK153239], the “% of control remaining” value turned out to be 102.694%.

As to `O=C(O)CCc1nn2c3ccccc3nc2n(-c2ccccc2)c1=O` [CBK267520], the “% of control remaining” value is 131.837%.

As to `CC(C)NC(=O)c1ccc(Cl)cc1` [CBK015665], the “% of control remaining” value stood at 112.631%.

For the molecule `O=C(NCc1ccc(Cl)c(Cl)c1)N1CCN(Cc2ccccc2)CC1` [CBK155624], the “% of control remaining” value is recorded as 121.274%.

With `COc1ccc(CCNC(=O)CSc2nc(N)c3c4c(sc3n2)CCCC4)cc1` [CBK095784], the “% of control remaining” value stood at 106.231%.

Turning to `O=C(Cc1ccccc1)N1C[C@@H]2CCCCN(CC3CC3)[C@@H]2C1` [CBK285497], the “% of control remaining” value came out at 108.647%.

In the case of `CCN(c1ccccc1)S(=O)(=O)c1ccc(C(=O)NC(C)c2ccc3c(c2)OCCO3)cc1` (stereo not shown) [CBK296945], the “% of control remaining” value turned out to be 124.028%.

As to `COc1ccccc1-c1coc2cc(OC(=O)c3c(C)oc4ccc(OC(C)=O)cc34)ccc2c1=O` [CBK265191], the “% of control remaining” value came to 112.957%.

As to `O=C1c2ccc3c4c(ccc(c24)C(=O)N1c1ccncc1)C(=O)N(c1ccncc1)C3=O` [CBK261390], the “% of control remaining” value came to 69.8724%.

For `Cc1noc(C)c1NC(=O)c1nc2ccccc2[nH]1` [CBK200315], the “% of control remaining” value is on record as 135.231%.

Turning to `Cn1ccnc1CN1C(=O)CO[C@H]2CN(Cc3ccc4c(c3)OCO4)C[C@H]21` [CBK289665], the “% of control remaining” value stood at 152.831%.

As to `NC(=O)CSc1ccccc1` [CBK010649], the “% of control remaining” value came to 134.422%.

Regarding `CN1CCN(CCC(=O)N2CCN(C(=O)c3ccco3)CC2)CC1` [CBK144481], the “% of control remaining” value is 106.63%.

Take `O=C1N=C(NC2CCCCCC2)SC1CC(=O)N(Cc1ccccc1)c1ccccc1` (stereo not shown) [CBK067394]: the “% of control remaining” value is 112.4%.

For the molecule `COc1cc(CN2CCC(C(=O)c3ccc(F)cc3)CC2)cc(OC)c1OC` [CBK149112], the “% of control remaining” value worked out at 98.4641%.

As for `CCN1CCN(C(=O)c2nccnc2C(=O)O)CC1` [CBK286718], the “% of control remaining” value was 112.57%.

`Sc1nnc(-c2cccc(Br)c2)o1` [CBK288432]: the “% of control remaining” value worked out at 119.454%.

For `CC(=O)Nc1ccc(OC(=O)CSc2nc(C)cc(-c3ccccc3)n2)cc1` [CBK268754], the “% of control remaining” value stood at 136.423%.

In the case of `CN(C)CCCN(Cc1ccco1)Cc1c[nH]nc1-c1cccs1` [CBK283198], the “% of control remaining” value is 101.093%.

Regarding `Cc1ccc(-c2ccccc2CC2(C(=O)Nc3ccc(C(N)=O)cc3)CCOCC2)c(C)c1` [CBK286422], the “% of control remaining” value turned out to be 139.795%.

As to `CCCn1nnn(-c2cc(OCCOCC)c(Cl)cc2Cl)c1=O` [CBK026016], the “% of control remaining” value turned out to be 155.045%.

Turning to `O=S(=O)(c1ccc(N2CCNCC2)cc1)n1ccc2ccc(Br)cc21` [CBK034034C], the “% of control remaining” value is 24.7677%.

Regarding `COc1cc(-c2nc3ncccc3cc2NC(=O)C(C)C)cc(OC)c1OC` [CBK073661], the “% of control remaining” value is 99.0939%.

On to `c1cncc(COc2cncc(N3CCCC3)n2)c1` [CBK115892], for which the “% of control remaining” value was found to be 100%.

In the case of `Cc1cc(S(=O)(=O)NCc2ccccc2)ccc1OCC(=O)N1CCN(C)CC1` [CBK268274], the “% of control remaining” value is on record as 118.059%.

For `O=C1C=C(O)CC(CCc2ccc(F)cc2)(CCc2ccc(F)cc2)O1` [CBK008148], the “% of control remaining” value came out at 100.044%.

Consider `O=C(Nc1ccc(N2CCCC2)c(F)c1)C1CC(=O)N(C2CC2)C1` (stereo not shown) [CBK281461], for which the “% of control remaining” value came out at 115.562%.

Turning to `CC(C)c1nc2c(n1C)CCN(Cc1cc(=O)n3ccccc3n1)C2` [CBK305061], the “% of control remaining” value was 135.536%.

On to `O=C(NCc1ccc(-c2nc3ncccc3o2)cc1)c1ccc(F)cc1` [CBK270182], for which the “% of control remaining” value is on record as 120.533%.

In the case of `Cc1ncc(CNC(=O)C2CC2)c(-c2cn(C)c3ccccc23)n1` [CBK283366], the “% of control remaining” value is listed as 118.452%.

On to `CN(C)CCN1C(=O)C(O)=C(C(=O)c2ccc(S(=O)(=O)N3CCOCC3)cc2)C1c1ccc(Br)cc1` (stereo not shown) [CBK264693], for which the “% of control remaining” value turned out to be 126.309%.
